Patent US9393247B2, “Heteroaryl derivatives as alpha7 nAChR modulators” (Lupin Limited, priority 2011, dated 2016)
Some entries share one result that the patent states for a list of compounds. At least one compound was matched to its structure with a doubt left.

Sequences of proteins named here, by UniProt entry; tags and fusion partners are left off. Residues count along the entry.
UniProt P36544, 23-502: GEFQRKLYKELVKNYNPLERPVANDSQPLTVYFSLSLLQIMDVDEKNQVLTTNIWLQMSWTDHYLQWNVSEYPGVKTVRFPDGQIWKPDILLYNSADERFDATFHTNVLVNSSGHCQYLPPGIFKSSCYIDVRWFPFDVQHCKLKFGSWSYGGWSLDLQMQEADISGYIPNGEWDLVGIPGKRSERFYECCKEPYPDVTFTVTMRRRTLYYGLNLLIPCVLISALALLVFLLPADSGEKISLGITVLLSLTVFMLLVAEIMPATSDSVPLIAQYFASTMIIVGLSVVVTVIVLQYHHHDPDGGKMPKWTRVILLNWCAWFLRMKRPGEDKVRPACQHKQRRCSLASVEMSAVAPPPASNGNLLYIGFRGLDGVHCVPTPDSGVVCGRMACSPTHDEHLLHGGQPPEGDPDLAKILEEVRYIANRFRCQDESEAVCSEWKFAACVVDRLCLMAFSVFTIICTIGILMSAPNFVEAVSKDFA

Biological target: T1, α7nAChR (Homo sapiens, UniProt P36544)
T1 construct: human IMR-32 cells with native expression of α7nAChR; endogenous in cells; host or cells: IMR-32 (human neuroblastoma)
Assay: Cell-based real-time kinetic FLIPR Ca2+ assay, potentiation of agonist response (fold PAM activity)
Conditions: 1 μM test compound, fold increase in response to agonist PNU-282987 (10 μM), human IMR-32 cells with native α7nAChR, intracellular Ca2+

For CCC(=O)c1sc(-c2ccc(N(C)C)cc2)c(C)c1-c1ccc(S(N)(=O)=O)cc1 [Compound 12, 4-((5-(4-Dimethylamino)phenyl)-4-methyl-2-propionylthiophen-3-yl)benzenesulfonamide], the “Fold activation at 1 μM conc. (Group)” value was “C (the compounds with activity above 15 folds are grouped as C)”.
